Laboratory results published in article PMC8217266 (Clinical Pharmacology and Therapeutics, 2021).

Tested on: transporters at major organ sites
Assay: Prediction of transporter-mediated inhibition / DDI potential
Design: species or system human
Conditions: of 11 transporters; FDA criteria

SMILES: CCS(=O)(=O)N1CC(CC#N)(n2cc(-c3ncnc4[nH]ccc34)cn2)C1 [Baricitinib]
- No. of transporters at major organ sites inhibited at clinical concentrations: 0
